Results on one molecule are retold here after US20150346208A1 (SPRING BIOSCIENCE, published 2015).

By UniProt entry, the sequences of proteins in these tests, tags left out. Residues count along the entry.
UniProt Q9NZQ7, residues 19-290: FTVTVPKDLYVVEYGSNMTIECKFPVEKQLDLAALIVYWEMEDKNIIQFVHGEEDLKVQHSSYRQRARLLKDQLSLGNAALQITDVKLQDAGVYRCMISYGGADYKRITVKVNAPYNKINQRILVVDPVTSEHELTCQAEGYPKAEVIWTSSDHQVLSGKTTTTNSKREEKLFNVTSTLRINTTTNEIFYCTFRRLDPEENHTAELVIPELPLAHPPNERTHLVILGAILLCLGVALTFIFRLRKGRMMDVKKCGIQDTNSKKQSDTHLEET

For experiment [1], the target named is T1, human PD-L1 (Programmed death ligand-1) (human, UniProt Q9NZQ7 19-290).
T1 construct: whole, on cells; Endogenous protein; For IHC it was in formalin-fixed, paraffin-embedded tissue sections; for the Western blot it was in SDS-PAGE-fractionated cell lysates (45-55 kDa band); also called B7-H1; PDCD1L1
The experiment in a line: IHC on FFPE placenta (legend of FIG. 4G).

For experiment [2], the target named is T1, human PD-L1 (Programmed death ligand-1). The experiment in a line: IHC on FFPE placenta, 0.9 µg/ml. The method, then:
Rabbit anti-human PD-L1 monoclonal antibodies SP263, J45H2L4 and J27H6L4 were applied onto formalin-fixed paraffin embedded (FFPE) tissue samples to assess the staining patterns of these antibodies. Tissue samples include placenta (positive control), stomach (negative control) and colon. Immunohistochemistry was performed on BenchMark Ultra (Ventana Medical System) using StdCC1 cell conditioning and standard Opt iView DAB detection protocol. Each primary antibody was incubated at 0.9 μg/ml for 16 min.

These are yes or no findings as the source states them, for the method shown. Some binding calls cover weakened binding; strength is not graded here.

B1: J27H6L4 rabbit anti-human PD-L1 monoclonal antibody (antibody, V domains shown)
VH: QSLEESGGRLVTPGTPLTLTCTVSGFSLSSHAISWVRQAPGKGLEWIGTINSDSHTYYATWAKGRFTSSKTSTTVDLKLTSPTTEDTATYFCARRIFSSSNIWGPGTLVTVSS
VL: VMTQTSSPVSAAVGGTVTINCQASQSIYNNNWLSWFQQKPGQPPKLLIYLASTLASGVPSRFKGSGSGTQSTLTISDVVCDDAATYYCIGGESSNTDGIAFGGGTEVVVE
Take B1: the binding result in experiment [1] and in experiment [2] was “binds” each time.
